Measurements taken from US20230287363, “DNA POLYMERASE, APTAMER, WARM-START DNA POLYMERASE AND PREPARATION METHODS AND APPLICATION THEREOF” (Sun Yat-Sen University, published 2023).
For part of these data: The comparison behind a weaker result is the experiment's own reference, which may not be listed here. For part of these data: Tags and fusion partners may be left off the protein sequences shown. For part of these data: For at least one entry, the source does not settle the construct or the ends of the probe.

Protein sequences, listed by entry. Tags and fused reporters are not part of them. Chains listed by the source or under a name are the forms on record and can include a tag or linker.
UniProt P19821, other isoform, or with tags, fused parts or gaps: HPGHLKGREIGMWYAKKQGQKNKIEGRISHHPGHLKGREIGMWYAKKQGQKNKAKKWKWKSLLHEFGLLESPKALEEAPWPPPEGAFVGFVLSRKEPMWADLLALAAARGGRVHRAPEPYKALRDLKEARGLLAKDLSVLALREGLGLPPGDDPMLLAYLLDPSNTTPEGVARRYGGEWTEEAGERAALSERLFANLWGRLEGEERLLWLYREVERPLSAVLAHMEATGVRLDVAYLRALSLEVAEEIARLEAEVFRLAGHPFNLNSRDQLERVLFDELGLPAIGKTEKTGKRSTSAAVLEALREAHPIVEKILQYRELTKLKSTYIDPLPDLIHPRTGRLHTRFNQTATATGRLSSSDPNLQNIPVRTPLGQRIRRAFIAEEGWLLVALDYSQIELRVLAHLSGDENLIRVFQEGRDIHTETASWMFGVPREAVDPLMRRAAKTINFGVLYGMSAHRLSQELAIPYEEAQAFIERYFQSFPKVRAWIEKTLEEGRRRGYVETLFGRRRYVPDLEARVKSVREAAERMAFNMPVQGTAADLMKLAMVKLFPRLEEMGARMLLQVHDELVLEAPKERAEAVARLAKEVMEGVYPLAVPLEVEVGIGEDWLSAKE

Experiments:
[1] = biological target: RHAU23-Taq (Homo sapiens / Thermus aquaticus) (UniProt P19821); experiment: inhibition of the protein; conditions: almost completely inhibited below 35 C by 200 nM aptamer; almost full recovery above 50 C; 2 mM MgSO4; purified recombinant protein; protein details: His-tag, pCold-I; folded or branched DNA; variant of HG53 (HG53-H8/T10)
[2] = tested on: T1, Bst-LF (Bst DNA polymerase large fragment) (Geobacillus stearothermophilus); experiment: EMSA; conditions: binding significantly reduced without G4-binding peptide; purified recombinant protein; protein details: His-tag, pCold-I, E. coli BL21; label: 5'-FAM (EMSA); folded or branched DNA
T1 sequence: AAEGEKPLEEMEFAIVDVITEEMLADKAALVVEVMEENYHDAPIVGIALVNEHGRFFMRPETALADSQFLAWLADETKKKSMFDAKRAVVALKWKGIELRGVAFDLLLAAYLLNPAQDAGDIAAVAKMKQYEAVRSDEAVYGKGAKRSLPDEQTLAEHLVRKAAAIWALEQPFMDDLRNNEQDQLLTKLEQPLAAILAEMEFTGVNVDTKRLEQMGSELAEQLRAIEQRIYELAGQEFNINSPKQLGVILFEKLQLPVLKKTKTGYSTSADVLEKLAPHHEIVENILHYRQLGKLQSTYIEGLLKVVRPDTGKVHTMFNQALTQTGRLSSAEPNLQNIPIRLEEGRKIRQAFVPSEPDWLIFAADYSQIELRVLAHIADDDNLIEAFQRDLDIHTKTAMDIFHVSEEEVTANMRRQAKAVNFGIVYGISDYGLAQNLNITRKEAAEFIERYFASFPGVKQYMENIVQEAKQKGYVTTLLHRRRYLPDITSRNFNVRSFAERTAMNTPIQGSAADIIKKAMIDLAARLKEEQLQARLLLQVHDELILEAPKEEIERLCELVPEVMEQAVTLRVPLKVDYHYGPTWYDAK

[3] = tested on: T2, G4P-Bst (G4P peptide fused to N-terminus of Bst-LF) (Homo sapiens / Geobacillus stearothermophilus); experiment: EMSA; conditions: range over six G4 DNAs; K+ buffer, 4 C; purified recombinant protein; protein details: His-tag, pCold-I, E. coli BL21; label: 5'-FAM (EMSA); folded or branched DNA
T2 sequence: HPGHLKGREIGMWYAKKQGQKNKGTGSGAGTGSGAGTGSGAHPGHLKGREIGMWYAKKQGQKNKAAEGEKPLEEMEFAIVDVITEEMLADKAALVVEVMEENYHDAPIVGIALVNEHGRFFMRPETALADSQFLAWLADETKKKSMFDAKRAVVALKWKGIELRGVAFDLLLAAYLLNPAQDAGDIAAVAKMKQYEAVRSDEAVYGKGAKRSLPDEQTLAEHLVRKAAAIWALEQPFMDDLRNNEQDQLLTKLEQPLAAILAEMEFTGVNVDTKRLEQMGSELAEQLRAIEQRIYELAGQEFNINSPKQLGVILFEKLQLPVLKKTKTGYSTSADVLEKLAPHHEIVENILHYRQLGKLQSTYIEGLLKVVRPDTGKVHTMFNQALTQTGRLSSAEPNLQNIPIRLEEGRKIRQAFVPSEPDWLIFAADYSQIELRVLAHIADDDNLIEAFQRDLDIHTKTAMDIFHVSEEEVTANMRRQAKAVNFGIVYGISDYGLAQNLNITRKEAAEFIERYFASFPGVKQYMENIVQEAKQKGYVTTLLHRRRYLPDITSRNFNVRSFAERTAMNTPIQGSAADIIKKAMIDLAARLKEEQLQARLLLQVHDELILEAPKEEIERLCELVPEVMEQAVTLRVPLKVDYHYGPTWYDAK

[4] = tested on: T1, Bst-LF (Bst DNA polymerase large fragment) (Geobacillus stearothermophilus); experiment: inhibition of the protein; conditions: no modulation of polymerase activity; purified recombinant protein; protein details: His-tag, pCold-I, E. coli BL21; label: 5'-FAM (EMSA); folded or branched DNA; dose not given here
[5] = tested on: T2, G4P-Bst (G4P peptide fused to N-terminus of Bst-LF) (Homo sapiens / Geobacillus stearothermophilus); experiment: inhibition of the protein; conditions: almost complete inhibition at 25 C; still inhibited at 65 C; purified recombinant protein; protein details: His-tag, pCold-I, E. coli BL21; label: 5'-FAM (EMSA); folded or branched DNA; dose not given here
[6] = tested on: T3, RHAU23-Bst (DHX36 RHAU23 peptide fused to N-terminus of Bst-LF) (Homo sapiens / Geobacillus stearothermophilus); experiment: inhibition of the protein; conditions: primer extension; activity almost completely restored at 65 C; purified recombinant protein; protein details: His-tag, pCold-I, E. coli BL21; label: 5'-FAM (EMSA); folded or branched DNA; dose not given here
T3 sequence: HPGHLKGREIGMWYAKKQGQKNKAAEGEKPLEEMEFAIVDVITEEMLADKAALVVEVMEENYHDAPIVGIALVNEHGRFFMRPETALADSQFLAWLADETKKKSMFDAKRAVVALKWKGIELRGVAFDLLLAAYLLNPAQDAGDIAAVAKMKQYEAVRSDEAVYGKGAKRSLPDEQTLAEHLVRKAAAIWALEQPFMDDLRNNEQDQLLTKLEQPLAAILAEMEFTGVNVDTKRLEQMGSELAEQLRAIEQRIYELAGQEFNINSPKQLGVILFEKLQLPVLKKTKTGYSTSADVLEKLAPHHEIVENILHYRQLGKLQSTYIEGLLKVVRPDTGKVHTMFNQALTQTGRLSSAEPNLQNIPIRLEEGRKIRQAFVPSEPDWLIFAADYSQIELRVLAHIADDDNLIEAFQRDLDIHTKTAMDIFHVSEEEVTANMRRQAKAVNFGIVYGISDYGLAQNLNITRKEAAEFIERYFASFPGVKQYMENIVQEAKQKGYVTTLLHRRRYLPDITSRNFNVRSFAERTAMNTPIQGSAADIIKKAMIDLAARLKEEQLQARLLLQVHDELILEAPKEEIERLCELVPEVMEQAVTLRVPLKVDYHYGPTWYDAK

| Sequence | functional effect of the aptamer [1] | binding result [2] | binding result [3] | functional effect of the aptamer [4] | functional effect of the aptamer [5] | functional effect of the aptamer [6] |
| --- | --- | --- | --- | --- | --- | --- |
| AGACCAGAAGTTTTGGTGGGTGGGTGGGATTTTTTTTTTACTGGTCT [HG53-H7] | active |  |  |  |  |  |
| CCTGAAGCAGACAGCTAGTGAATTCGTTTTGGTGGGTGGGTGGGTACTTGCGTATAACTGTTCCATAGT / ACTATGGAACAGTTATACGCAAGTATTTTTTTTTTTTTTTTTTTTTGAATTCACTAGCTGTCTGCTTCAGG [T4B1-Fd-G4] |  | binds more weakly | binds | less active | active | active |
